According to patent publication US12098176B2, “Keratin BD-4, preparation method, and pharmaceutical composition and use thereof” (Institute of Materia Medica, Chinese Academy of Medical …, priority 2019, dated 2024):

Test system: lipopolysaccharide (LPS) induced fever in rats
Test: Lipopolysaccharide (LPS) induced fever in SD rats
Type: in vivo, rat
Details: before modeling
Description: Experimental example 2 The pharmacodynamic test of protein BD-4 (Example 4 protein) on lipopolysaccharide (LPS) induced fever in SD rats.
Experiment Grouping: • Model group: lipopolysaccharide fever model; • Positive control group: Aspirin 300 mg/kg group, • Protein BD-4, 10 mg/kg group, 50 mg/kg group. Method: the method of intraperitoneal injection of Lipopolysaccharide to create fever model in rats.
Preparation of experimental animals: After the experimental animals adapt to the experimental environment (temperature 22° C.±2° C., relative humidity 50%±2%) for 1 day. […] Insert the rat rectum 2 cm (can be marked at 2 cm to ensure that the depth of each insertion is consistent), and record the body temperature after the reading is stable.
Intraperitoneal injection of lipopolysaccharide to replicate rat fever model: The body temperature of the rats was measured before modeling. […] After oral administration of aspirin and different doses of protein BD-4, lipopolysaccharide (20 μg/kg, 2 ml/kg) was injected intraperitoneally immediately, and the normal control group was injected intraperitoneally with an equal volume of normal saline. the rats' body temperature was monitored after 2 hours for a total of 8 hours. […]

B1: BD-4: recombinant keratin, amino acid sequence SEQ ID NO: 1, expressed in E. coli; the protein of Example 4 was tested (protein, listed as Bos taurus)
chain: MSYSCCLPNLSFRSSCSSRPCVPSSCCGTTLPGACNIPANVGSCNWFCEGSFNGSEKETMQFLNDRLASYLEKVRQLERDNAELESRILERSQQQEPLVCPNYQSYFRTIEELQQKILCSKSENARLVVQIDNAKLASDDFRTKYETEVSLRQLVEADLNGLRRILDELTLCKSDLEARVESLKEELICLKQNHEQEVNTLRSQLGDRLNVEVDAAPTVDLNRVLNETRAQYEALVETNRRDVEEWYIRQTEELNKQVVSSSEQLQSYQAEIIELRRTVNALEVELQAQHNLRDSLENTLTETEARYSCQLAQVQGLIGNVESQLAEIRSDLERQNQEYQVLLDVRARLECEINTYRGLLDSEDCKLPCNPCATTNACERPCISNPCVSRARCGPCNTFVH
Basal body temperature (BD-4 10 mg/kg group): 36.9 ± 0.1 °C | Basal body temperature (BD-4 50 mg/kg group): 36.8 ± 0.1 °C
